Test results from paper PMC5452015, “Sen1 has unique structural features grafted on the architecture of the Upf1‐like helicase family” (The EMBO Journal, 2017).
Substitutions are numbered along the chain they refer to. For some of these results: A weaker result is weaker than the reference pair of the same experiment. Protein sequences can lack the tags named with them. For some of these results: The exact form of at least one protein or probe is not confirmed. For some of these results: At least one verdict rests on a figure or table, not on a statement of the authors.

What was measured:
[1] = molecular target: T1, Sen1Hel L1549D (Saccharomyces cerevisiae) (UniProt Q00416); test: EMSA; conditions: EMSA: 2 nM RNA; recombinant protein; residues 1095-1904; protein details: C-terminal CPD-His8 removed by 3C; label: 5' fluorescent label
T1 sequence (looked up): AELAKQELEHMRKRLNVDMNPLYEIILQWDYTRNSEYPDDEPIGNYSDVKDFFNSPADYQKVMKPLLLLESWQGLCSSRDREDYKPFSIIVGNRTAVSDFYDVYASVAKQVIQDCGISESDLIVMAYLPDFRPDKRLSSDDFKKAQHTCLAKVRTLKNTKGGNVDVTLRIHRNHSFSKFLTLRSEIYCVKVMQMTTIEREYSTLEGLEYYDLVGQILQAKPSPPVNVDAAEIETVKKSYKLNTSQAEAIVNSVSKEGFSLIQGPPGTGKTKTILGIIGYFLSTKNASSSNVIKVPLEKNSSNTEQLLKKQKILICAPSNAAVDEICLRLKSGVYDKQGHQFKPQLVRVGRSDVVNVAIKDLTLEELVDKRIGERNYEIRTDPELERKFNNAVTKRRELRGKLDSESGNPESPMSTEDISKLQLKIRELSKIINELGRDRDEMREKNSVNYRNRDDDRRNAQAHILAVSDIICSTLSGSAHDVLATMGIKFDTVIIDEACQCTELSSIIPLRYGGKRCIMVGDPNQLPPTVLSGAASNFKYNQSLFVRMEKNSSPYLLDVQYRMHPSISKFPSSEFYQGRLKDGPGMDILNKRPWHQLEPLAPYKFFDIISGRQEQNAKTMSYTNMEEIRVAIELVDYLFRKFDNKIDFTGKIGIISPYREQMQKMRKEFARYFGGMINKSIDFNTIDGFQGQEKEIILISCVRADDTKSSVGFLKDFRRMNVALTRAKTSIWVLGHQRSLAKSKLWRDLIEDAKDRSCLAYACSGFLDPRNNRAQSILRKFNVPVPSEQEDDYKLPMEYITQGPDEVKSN

[2] = molecular target: T2, Sen1Hel R1820Q (Saccharomyces cerevisiae) (UniProt Q00416); test: fluorescence anisotropy; conditions: 2 mM Mg2+; FA: 20 mM Hepes pH 7.5, 300 mM NaCl, 2 mM MgCl2, 1 mM DTT, 20 C, 10 nM RNA; recombinant protein; residues 1095-1904; protein details: C-terminal CPD-His8 removed by 3C; label: 5' fluorescein
T2 sequence (looked up): T1 sequence (looked up) with D455L, R726Q

[3] = molecular target: T3, Sen1Hel T1289A, R1293A (Saccharomyces cerevisiae) (UniProt Q00416); test: fluorescence anisotropy; conditions: 2 mM Mg2+; FA: 20 mM Hepes pH 7.5, 300 mM NaCl, 2 mM MgCl2, 1 mM DTT, 20 C, 10 nM RNA; recombinant protein; residues 1095-1904; protein details: C-terminal CPD-His8 removed by 3C; label: 5' fluorescein
T3 sequence (looked up): T1 sequence (looked up) with T195A, R199A, D455L

[4] = molecular target: T4, Sen1Hel T1779P (Saccharomyces cerevisiae) (UniProt Q00416); test: fluorescence anisotropy; conditions: 2 mM Mg2+; FA: 20 mM Hepes pH 7.5, 300 mM NaCl, 2 mM MgCl2, 1 mM DTT, 20 C, 10 nM RNA; recombinant protein; residues 1095-1904; protein details: C-terminal CPD-His8 removed by 3C; label: 5' fluorescein
T4 sequence (looked up): T1 sequence (looked up) with D455L, T685P

Sequence | binding result [1] | binding result [2] | binding result [3] | binding result [4]
UUCAUUUCAGACCAGCACCCACUCACUACAACUCACGACCAGGC [DL3316 44-mer RNA] | binds more weakly |  |  | 
UUUCUAUUUAUUUUG [ARE 15-mer AU-rich RNA] |  | binds | binds more weakly | binds more weakly
